# Source: PubChem BioAssay AID2685 (National Center for Advancing Translational Sciences (NCATS), 2010)
# The campaign covered roughly 320,000 compounds. About 2,100 (0.66%) were called active. The shares of active, inactive and inconclusive entries below differ from those in the screen. Calls come from the whole dose curve; as a rule, active = well fitted inhibition curve with a large enough effect in the signal ratio, with a control signal flat (not every such curve was filed as active); inconclusive = small, poorly fitted or top-dose-only effect, or effect the other way, or a change in a side signal; inactive = flat fitted curve, though single readings scatter; the % refers to the signal ratio. Where the call is inconclusive, the potency comes from a doubtful curve fit.
# Assay: qHTS Assay for Lipid Storage Modulators in Drosophila S3 Cells
# Conditions: BODIPY lipid droplet fluorescence, 18-24 h, cells fed with added oleic acid; lipid storage change, negative = inhibition: at 46.1 µM (top of the series) unless noted
# Method in brief: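 Drosophila S3 cells loaded with oleic acid (400 uM, as added) and compounds at several concentrations; lipid droplets imaged by 488-nm laser-scanning cytometry, 500–530 nm intensity and object ratio to cell channel. Percent activity normalized to 20 uM Triacsin C.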
# % is set by controls: 0 for no effect and ±100 for the full control effect; potency is the fitted concentration of half-maximal effect.
Structure (SMILES),"lipid storage change, negative = inhibition",Potency
CN(C)C(=O)c1nc2ccc(Cl)cn2c1CNCc1ccccc1OC(F)(F)F,inactive,
COc1ccccc1NS(=O)(=O)c1ccc2[nH]c(=O)[nH]c2c1,inactive,
Cc1ccc(N(CC(=O)NCC2CCCO2)S(C)(=O)=O)cc1Cl (centres undefined),inconclusive: 10.3%,
COc1ccc(CN2CCNC(=O)C2CC(=O)N(C)Cc2nccs2)cc1OC (centres undefined),inconclusive: 5.37%,
O=C(N[C@@H](Cc1ccccc1)C(=O)NC1CC1)c1ccc(Cl)cc1,inconclusive: -0.377%,
CC(=O)Nc1ccc(S(=O)(=O)NCC(=O)OCC(=O)N2CCCCCC2)cc1,,"inconclusive: 0.92 µM [activator, full curve]"
NC(=O)NC(=O)COC(=O)c1ccccc1Oc1ccccc1,inconclusive: 37.4%,
COc1cccc(/C=C2\SC(=S)N(CC(=O)N(C)C3CCS(=O)(=O)C3)C2=O)c1 (centres undefined),inconclusive: -98.3%,
Cc1cc(Cl)ccc1NC(=S)NC1CCCC1,inconclusive: 31.9%,
NC(=O)COC(=O)c1cccnc1Nc1ccccc1F,inconclusive: 11.5%,
CCOc1cc(CO)cc(Br)c1OCC(=O)Nc1ccccc1C,inconclusive: -0.574%,
Cc1nn(Cc2cccc(C(=O)N3N=C(C(F)F)CC3(O)C(F)F)c2)c(C)c1[N+](=O)[O-] (centres undefined),,"inconclusive: 3.66 µM [rising, full curve]"
O=C(CN1CCN(S(=O)(=O)c2ccc(Cl)cc2)CC1)Nc1ccc2c(c1)OCCO2,inconclusive: -51% [at 0.0737 µM],
Cc1ccc(C2CC(C(F)(F)F)n3ncc(C(N)=O)c3N2)cc1 (centres undefined),,"inconclusive: 29.1 µM [activator, single point]"
CCn1c2ccccc2c2cc(NC(=O)COC(=O)c3cc(S(=O)(=O)N4CCCCC4)ccc3Cl)ccc21,inconclusive: 43% [activator],
Cn1c(=O)c2c(ncn2CC(=O)OCC(=O)Nc2ccc(F)cc2F)n(C)c1=O,,"inconclusive: 2.59 µM [activator, partial curve, poor fit]"
CCCCCCCN=CC1=C(O)CC(c2ccccc2)CC1=O (centres undefined),inconclusive: 16.3%,
Cc1ccc(CNC(=O)c2ccc(N3CCC4(CC3)CC(c3cccc(Br)c3)=NO4)c(N)c2)cc1,,"inconclusive: 0.291 µM [falling, partial curve]"
CCN(C(=O)CN1CCN(c2cccc(Cl)c2)CC1)c1c(N)n(Cc2ccccc2)c(=O)[nH]c1=O,inactive,
CC1(C)CCC(=O)N2CC[C@H]3C[C@H](OC(=O)Nc4ccccc4)C[C@@H]1[C@H]32,,"inconclusive: 1.03 µM [activator, full curve]"
CCCSc1nc2c(c(=O)[nH]c(=O)n2C)n1CCc1ccccc1,,"inconclusive: 0.731 µM [falling, single point]"
Cc1nc2ccccc2nc1OCC(=O)NCC(F)(F)F,,"inconclusive: 20.6 µM [falling, partial curve]"
O=C(NCCc1c[nH]c2ccccc12)c1cc2sccc2n1Cc1ccccc1,,"inconclusive: 10.3 µM [cytotoxic, partial curve]"
CCC(C)[C@H](NC(=O)[C@H](Cc1ccccc1)n1c(=O)[nH]c2ccccc2c1=O)C(=O)NCC1CCC(C(=O)O)CC1 (some centres undefined),,"inconclusive: 2.31 µM [falling, partial curve, poor fit]"
NC(N)=NS(=O)(=O)c1ccc(NC(=S)NC(=O)c2ccc(Br)cc2)cc1,inconclusive: 51%,

Structure (SMILES),"lipid storage change, negative = inhibition",Potency
O=C(Nc1ccc(S(=O)(=O)N2CCCCCC2)cc1)c1ccco1,inactive,
CCCCOCCCn1c(-c2ccco2)nc2nc3ccccc3nc21,inconclusive: -16.6%,
CCCn1c(SCc2ccc(Cl)cc2)nc2c1c(=O)[nH]c(=O)n2C,,"inconclusive: 16.4 µM [activator, single point]"
COc1ccc(C(=O)NNc2ccccc2)cc1,inconclusive: 5.75%,
CC1CCCC(NC(=O)CCNC(=O)c2ccc([N+](=O)[O-])cc2)C1C (centres undefined),inconclusive: 34.5%,
COc1ccccc1OCCC(=O)OCC(=O)Nc1cc(S(=O)(=O)N2CCOCC2)ccc1Cl,inconclusive: 42.2%,
CC(C)Sc1nc2ccccc2n1CC(=O)O,,"inconclusive: 16.4 µM [activator, single point]"
Cc1cc(C)nc(N(C#N)CN2C(=O)c3ccccc3C2=O)n1,inconclusive: 0.835%,
CC(=O)Nc1nc2c(C)cc(NC(=O)C3CCCCC3)cc2s1,,"inconclusive: 0.651 µM [rising, full curve]"
O=C(NNc1ccccn1)c1ccccc1CC[N+](=O)[O-],inconclusive: 25.4%,
CCC(=O)N1CCc2cc(S(=O)(=O)NCCC(=O)NCc3ccccc3OC)ccc21,,"inconclusive: 29.1 µM [activator, single point]"
O=C(Cc1cccc2ccccc12)Nc1cc(Cl)ccc1C(=O)O,inconclusive: 203%,
O=C(NCc1nc2ccccc2[nH]1)C1=C[C@H](c2ccc3c(c2)OCO3)C[C@H](OCCCCO)O1,inconclusive: 12.1%,
O=C(N/N=C/c1c[nH]c2ccccc12)c1ccccc1O,inconclusive: -24.7%,
Cc1ccc(CC(=O)Nc2ccc(S(=O)(=O)Nc3ncccn3)cc2)cc1,inconclusive: 35.3%,
COc1ccc(NC(=O)CN2CCCN(S(=O)(=O)c3ccc(F)cc3)CC2)c(OC)c1,inactive,
N#CC1=C(SCC(=O)c2ccc(Cl)cc2)NC2=C(C(=O)CCC2)C1c1ccco1 (centres undefined),,"inconclusive: 0.517 µM [activator, partial curve]"
CCC1CCCCN1C(=O)CCc1nnc(Cc2cc(OC)ccc2OC)o1 (centres undefined),inconclusive: -35.6%,
CCOC(=O)c1cccc(N/C=C/C(=O)c2ccc(OC)c(OC)c2)c1,inconclusive: -24.5%,
Cc1ccc(C(=O)N2CC(C)CC(C)C2)cc1NC1=NC2CS(=O)(=O)CC2S1 (centres undefined),inconclusive: 40.5%,
Cc1c(N2C(=O)CSC2c2ccco2)c(=O)n(-c2ccccc2)n1C (centres undefined),,"inconclusive: 0.82 µM [cytotoxic, full curve, poor fit]"
CCOc1ccc(C(=O)N/N=C/c2ccccc2[N+](=O)[O-])cc1,,"inconclusive: 9.2 µM [activator, partial curve]"
Cc1ccccc1NC(=O)C(C)OC(=O)CNS(=O)(=O)c1ccc(C#N)cc1 (centres undefined),,"inconclusive: 6.51 µM [activator, single point]"
COc1ccc(NC(=S)c2ccccc2)cc1,,"inconclusive: 3.26 µM [rising, full curve, poor fit]"
O=C(O)c1ccc(Nc2nc(-c3cccnc3)cs2)cc1O,inconclusive: 215%,

# Laid out differently: results already given
Structure (SMILES) | lipid storage change, negative = inhibition | Potency
CCCCOCCCn1c(-c2ccco2)nc2nc3ccccc3nc21 | inconclusive: -16.6% | 
COc1ccccc1OCCC(=O)OCC(=O)Nc1cc(S(=O)(=O)N2CCOCC2)ccc1Cl | inconclusive: 42.2% | 
O=C(NNc1ccccn1)c1ccccc1CC[N+](=O)[O-] | inconclusive: 25.4% | 
Cc1ccc(CC(=O)Nc2ccc(S(=O)(=O)Nc3ncccn3)cc2)cc1 | inconclusive: 35.3% | 

# One compound at a time, from the list above:
# CCOc1ccc(C(=O)N/N=C/c2ccccc2[N+](=O)[O-])cc1 reads Potency: inconclusive: 9.2 µM [activator, partial curve]
# CC(=O)Nc1nc2c(C)cc(NC(=O)C3CCCCC3)cc2s1 reads Potency: inconclusive: 0.651 µM [rising, full curve]

# Later entries.

Structure (SMILES),"lipid storage change, negative = inhibition",Potency
Cc1nc(C)c(-c2ccn(S(=O)(=O)c3ccc(Cl)cc3)n2)o1,inconclusive: -19.4%,
O=C(CNC(=O)C1CCCCC1)NC1CCCCC1,,"inconclusive: 11.6 µM [activator, partial curve]"
COCCNc1nnc(SCC(=O)Nc2sc3c(c2C(=O)c2ccccc2)CCCC3)s1,,"inconclusive: 14.6 µM [falling, partial curve, poor fit]"
CC(=O)c1ccc(N2CCN(S(=O)(=O)c3cccc4nsnc34)CC2)cc1,inconclusive: 22.4% [at 9.22 µM],
COc1ccc(NC(=O)c2cnc3sccn3c2=O)cc1,,"inconclusive: 16.4 µM [activator, single point]"
COc1ccc(C(=O)NC(C)c2nnc(SCC(=O)Nc3nc4ccccc4s3)n2C)cc1 (centres undefined),inconclusive: 89%,
Cc1ccc(C)c(S(=O)(=O)N2CCN(Cc3ccc(O)c4ncccc34)CC2)c1,inconclusive: 10.8%,
CCc1cc2c(COC(=O)c3cc(S(=O)(=O)N4CCOCC4)ccc3F)cc(=O)oc2cc1O,,active: 18.4 µM
CCOc1ccc(/C=N/NC(=O)CN2CCCCC2)cc1OCC,inconclusive: -34.2%,
CC(=O)Nc1ccc(OCCC[n+]2ccccc2)cc1,,"inconclusive: 0.116 µM [falling, full curve, poor fit]"
CCN(C(=O)c1cc(Cl)ccc1OC)C1CCCCC1,,"inconclusive: 13 µM [activator, partial curve, poor fit]"
Cc1cc(C(=O)CN2C(=O)NC3(CCCc4sccc43)C2=O)c(C)n1-c1ccc(Cl)cc1 (centres undefined),,"inconclusive: 2.06 µM [activator, full curve, poor fit]"
COCCCn1c(SCC(=O)Nc2sc3c(c2C#N)CCCC3)nnc1-c1ccncc1,inconclusive: 1.55%,
CC(C(=O)Nc1ccc2c(c1)OCCO2)c1ccc([N+](=O)[O-])cc1 (centres undefined),inconclusive: -14.7%,
CCOc1ccc(NC(=O)CN(C)C(=O)CN2C(=O)C3CCCCC3C2=O)cc1OCC (centres undefined),inconclusive: -3.35%,
C=CCSc1nnc(CCCCCN2C(=O)c3cccc4cccc(c34)C2=O)o1,inconclusive: -42.2%,
O=C(NCc1ccccc1)NC1(C(=O)N2CCN(c3ccccc3)CC2)CCCCC1,inconclusive: -49.1%,
Cc1nnc(-c2ccccc2)c(=O)n1/N=C/c1c(O)ccc2ccccc12,inconclusive: 20.7%,
CCOc1ccccc1N1CCN(Cc2cn[nH]c2-c2ccc(F)cc2)CC1,inconclusive: -19.5%,
N#Cc1nc(-c2ccccc2Cl)oc1N1CCCCC1,inconclusive: 17.4%,
COc1cccc(C2=CC(c3ccc(N(C)C)cc3)n3ncnc3N2)c1 (centres undefined),,"inconclusive: 29.1 µM [activator, single point]"
Cc1nn(Cc2ccc(Cl)cc2)c(C)c1NC(=O)C(c1ccccc1)c1ccccc1,,active: 23.1 µM
COc1ccccc1CCNC(=O)C1CCCO1 (centres undefined),inconclusive: -52%,
Cc1ccc(C(=O)NNC(=O)c2csc(N3CCOCC3)n2)s1,inconclusive: 24.8%,
